For the data set, the system named is BxPC-3 Human Pancreas Tumor Xenograft. The data set can be described thus: BxPC-3 human pancreas tumor xenograft model: tumor weight and tumor growth inhibition. The data set is classed as in vivo, mouse. The note with it: for Day tumor necrosis was first observed: in vivo; for Tumors demonstrating some level of necrosis: of ten tumors, attributed to normal progression of the xenograft model. On the procedure: Compounds tested in the experiment were as follows. […] A concentration of 4.8 mg/ml was formulated to deliver a 24 mg/kg dose at a 5 ml/kg dose volume when administered subcutaneously. […] Nab-paclitaxel was manufactured by Abraxis BioScience LLC (Bridgewater, N.J.) and diluted in a 0.9% NaCl solution to a concentration of 1.5 mg/ml to deliver 15 mg/kg, in a 10 ml/kg dose volume. All standard agent preparations were made fresh prior to their administration.
BxPC-3 cells were obtained and prepared as follows. The BxPC-3 pancreas tumor cell line was received from American Type Culture Collection (ATCC, Manassas, Va.). Cultures were maintained in RPMI 1640 medium (Hyclone, Logan, Utah) supplemented with 5% fetal bovine serum. The cells were housed in a 5% CO2 atmosphere. The cultures were expanded in tissue culture flasks at a 1:3 split ratio until a sufficient amount of cells were harvested.
All experiments were conducted on female athymic nude mice (Hsd:Athymic Nude-Foxn1nu) supplied by Harlan (Indianapolis, Ind.). Mice were received at four weeks of age, 12-15 grams in weight, and were acclimated for seven days prior to handling. The mice were housed in microisolator cages (Lab Products, Seaford, Del.) and maintained under specific pathogen-free conditions. All procedures were carried out under appropriate institutional guidelines for animal care.
BxPC-3 Human Pancreas Tumor Xenograft Model: Female athymic nude mice per treatment condition were inoculated subcutaneously in the right flank with 0.1 ml of a 50% RPMI 1640/50% Matrigel™ (BD Biosciences, Bedford, Mass.) mixture containing a suspension of BxPC-3 tumor cells (approximately 5×10^6 cells/mouse).
Seven days following inoculation, tumors were measured using calipers and tumor weight was calculated using the animal study management software, Study Director V.1.7.54 k (Study Log). See Britten C D, et al. Enhanced antitumor activity of 6-hydroxymethylacylfulvene in combination with irinotecan and 5-fluorouracil in the HT29 human colon tumor xenograft model. Cancer Res 59:1049-1053, 1999. […] Body weights were recorded when the mice were randomized and were taken twice weekly thereafter in conjunction with tumor measurements, on each of Days 1, 4, 8, 11, 15, 18, 22, 26, 30, 33, and 36.
The study was terminated when the vehicle control reached an endpoint of 1500 mg, on Day 36.
Mean tumor growth inhibition (TGI) was calculated utilizing Formula A below (deaths were not included in the TGI calculations).
All statistical analyses in the xenograft study were performed with GraphPad Prism® v4 software.
For orientation: In xenograft studies the graft and the host belong to different species.

Consider `O=C1[O][Pt]2([NH][C@@H]3CCCC[C@H]3[NH]2)[O]C1=O` [Oxaliplatin], for which the “Day tumor necrosis was first observed” value came out at 26 days and the “Tumors demonstrating some level of necrosis” value was “Three of ten”.

Take 2-O, 3-O desulfated heparin [ODSH]: the “Day tumor necrosis was first observed” value came to 30 days and the “Tumors demonstrating some level of necrosis” value was “Three of ten”.

As for `Nc1ccn([C@@H]2O[C@H](CO)[C@@H](O)C2(F)F)c(=O)n1` [Gemcitabine], the “Day tumor necrosis was first observed” value was found to be 26 days and the “Tumors demonstrating some level of necrosis” value is given as “Four of the ten”.

The record behind these values is patent publication US20120196828A1, “SENSITIZATION OF CANCER CELLS TO TREATMENT” (priority 2011, published 2012).
